Experimental data from PubChem BioAssay AID1273 (Columbia University Molecular Screening Center, 2008).
Among all 130,000 compounds or so, about 1,200 (0.92%) were called active. This list was built around the results that the source calls inconclusive (neither active nor inactive); the mix of calls is not that of the screen.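 How the source made its calls: active means inhibition above the mean plus 3 SD, with well images judged a real hit on visual review (cut at about 60% in these data, passing the limit was not always enough); inconclusive means inhibition over the cutoff but images rejected on review; inactive means inhibition not above the cutoff.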

Experiment: inhibitors of insulin promoter-driven GFP, primary screen, imaging, TRM-6 cells (human fetal islet line), eGFP reporter, cell count (AID 1273)
Details: at 2 µM, hits give high values, reporter expression induced with tamoxifen

| Structure (SMILES) | inhibition |
| --- | --- |
| Cc1nnc2sc(-c3ccc(NC(=O)c4ccc(-c5ccc(Br)cc5)o4)cc3)nn12 | inactive: 26.7% |
| NC(=O)COc1ccc(Cc2ncc(C(F)(F)F)cc2Cl)cc1 | inactive: 30.2% |
| COC(=O)Cc1c(C)c2c(O)cc(C)cc2oc1=O | inconclusive: 70% |
| Cc1cccc(OCC(=O)N(Cc2cccs2)C2CCS(=O)(=O)C2)c1 (stereo unspecified) | inconclusive: 70.6% |
| CCOC(=O)c1[nH]c2ccccc2c1NC(=O)NC1CCCCC1 | inconclusive: 66.7% |
| CC(=O)N1N=C(N)SC1c1cccc([N+](=O)[O-])c1 (stereo unspecified) | inconclusive: 62.5% |
| NC(=O)Cc1ccc(C(=O)c2ccccc2F)s1 | inconclusive: 81.8% |
| Cc1ccc(SCCC(=O)N2CCCC2)cc1 | inconclusive: 77.3% |
| Cc1onc(-c2ccccc2Cl)c1C(=O)N1CCN=C1SCc1cccnc1 | inconclusive: 72.7% |
| Cc1ccc(CNC(=O)C(=O)Nc2nccs2)cc1 | inactive: -25% |
| CCOc1cccc(C(=O)Nc2nc(-c3ccc(S(=O)(=O)N4CCOCC4)cc3)cs2)c1 | inconclusive: 76.2% |
| C/C(=N\NC(=O)c1cccc(N/N=C(\C)c2ccco2)c1)c1ccco1 | active: 81.8% |
| Cc1ccc2nc(NCCCO)[nH]c2c1 | active: 78.4% |
| Cc1sc2nc(CN(Cc3cccs3)C(=O)C3CC3)[nH]c(=O)c2c1C | inconclusive: 76.2% |
| CCN(CC)CCCNC1CCS(=O)(=O)C1 (stereo unspecified) | inconclusive: 90% |
| CCNc1nc(Oc2ccc(=O)[nH]n2)nc(SC)n1 | inconclusive: 79.3% |
| CC(=O)NCCOc1c(C)cc(S(N)(=O)=O)cc1C | inconclusive: 78.6% |
| Cc1ccc(CNc2nc3ccccc3s2)s1 | inconclusive: 86.2% |
| O=c1[nH][nH]c2cc(=O)n(-c3cccc(C(F)(F)F)c3)nc12 | inconclusive: 86.7% |
| Cc1ccc(-c2cc(-c3ccccc3Cl)[nH]n2)c(O)c1 | inconclusive: 81.8% |
| O=C(O)Cn1nc(-c2ccccc2)c2ccccc2c1=O | inconclusive: 81.2% |
| CCOC(=O)c1[nH]c(C)c(CN(CCc2ccc(OC)c(OC)c2)C(=O)CCCC(=O)O)c1C | inconclusive: 71.4% |
| CN(c1ccccc1)S(=O)(=O)c1ccc(C(=O)NCC2CCCO2)cc1 (stereo unspecified) | inactive: -26.1% |
| Cc1cc(C)cc(NC(=O)c2ccc3nc[nH]c3c2)c1 | inactive: 24.7% |
| COc1ccc(C(C(=O)NC2CCCCC2)N(C(=O)c2ccco2)c2ccc(-n3cnnn3)c(C)c2)cc1 (stereo unspecified) | inconclusive: 81% |
| CCn1c(-c2nn(C)c(C)c2Cl)n[nH]c1=S | inconclusive: 75.9% |

Reprinted at random: two records from the list.

| Structure (SMILES) | inhibition |
| --- | --- |
| CCOC(=O)c1[nH]c(C)c(CN(CCc2ccc(OC)c(OC)c2)C(=O)CCCC(=O)O)c1C | inconclusive: 71.4% |
| Cc1ccc(-c2cc(-c3ccccc3Cl)[nH]n2)c(O)c1 | inconclusive: 81.8% |
